PubChem BioAssay AID1259424 – University of Nebraska Medical Center | 2018
Assay: 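Rank knockdowns across the genome by resemblance to the KSR1 depletion profile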 (primary screen). Cell system: human HCT116 colon cancer cells. Reagents: siRNA pool against human genes, 50 nM. Detection: 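Six signature mRNAs by branched-DNA multiplex assay, scaled to two housekeeping genes and non-targeting median, log2; matched to mean KSR1 knockdown profile by Pearson correlation and euclidean distance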. Scale: mean correlation with KSR1 profile: higher = expression change more like KSR1 knockdown; mean distance from KSR1 profile: higher = expression change less like KSR1 knockdown.
This is one part, drawn at random, of about 14,000 deposited reagents. 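Higher correlation or smaller distance means closer resemblance to KSR1 loss; control wells, including KSR1 knockdowns, recur on many plates.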 The numbers tell different reagents against one gene apart. Not all columns of the deposit are shown. The record does not give: the time to read-out.

IL1RAPL2 (interleukin 1 receptor accessory protein like 2) — mean correlation with KSR1 profile = 0.314; mean distance from KSR1 profile = 1.09
TSC22D2 (TSC22 domain family member 2) — mean correlation with KSR1 profile = 0.511; mean distance from KSR1 profile = 1.3
MORF4 (mortality factor 4 (pseudogene)) — mean correlation with KSR1 profile = 0.229; mean distance from KSR1 profile = 5.39
JOSD1 (Josephin domain containing 1) — mean correlation with KSR1 profile = 0.0402; mean distance from KSR1 profile = 1.41
FAM234B (family with sequence similarity 234 member B) — mean correlation with KSR1 profile = -0.518; mean distance from KSR1 profile = 2.38
GAS7 (growth arrest specific 7) — mean correlation with KSR1 profile = -0.679; mean distance from KSR1 profile = 1.28
INF2 (inverted formin 2) #1 — mean correlation with KSR1 profile = -0.442; mean distance from KSR1 profile = 2.48
INF2 (inverted formin 2) #2 — mean correlation with KSR1 profile = 0.891; mean distance from KSR1 profile = 1.21
GEMIN6 (gem nuclear organelle associated protein 6) — mean correlation with KSR1 profile = 0.384; mean distance from KSR1 profile = 1.95
PACSIN3 (protein kinase C and casein kinase substrate in neurons 3) — mean correlation with KSR1 profile = 0.745; mean distance from KSR1 profile = 0.871
PES1 (pescadillo ribosomal biogenesis factor 1) — mean correlation with KSR1 profile = 0.151; mean distance from KSR1 profile = 2.65
CHRNA4 (cholinergic receptor nicotinic alpha 4 subunit) — mean correlation with KSR1 profile = -0.389; mean distance from KSR1 profile = 1.81
VPS39 (VPS39 subunit of HOPS complex) — mean correlation with KSR1 profile = 0.0771; mean distance from KSR1 profile = 1.87
SURF6 (surfeit 6) — mean correlation with KSR1 profile = -0.0048; mean distance from KSR1 profile = 1.69
OLIG2 (oligodendrocyte transcription factor 2) — mean correlation with KSR1 profile = 0.519; mean distance from KSR1 profile = 1.1
NIP7 (nucleolar pre-rRNA processing protein NIP7) — mean correlation with KSR1 profile = 0.276; mean distance from KSR1 profile = 3.65
NUFIP1 (nuclear FMR1 interacting protein 1) — mean correlation with KSR1 profile = 0.00574; mean distance from KSR1 profile = 1.2
AIP (AHR interacting HSP90 co-chaperone) — mean correlation with KSR1 profile = -0.473; mean distance from KSR1 profile = 2.09
NACC1 (nucleus accumbens associated 1) — mean correlation with KSR1 profile = -0.066; mean distance from KSR1 profile = 2
A2M (alpha-2-macroglobulin) — mean correlation with KSR1 profile = -0.973; mean distance from KSR1 profile = 1.42
APOL3 (apolipoprotein L3) — mean correlation with KSR1 profile = -0.141; mean distance from KSR1 profile = 1.53
MT-ND5 (mitochondrially encoded NADH dehydrogenase 5) — mean correlation with KSR1 profile = -0.0706; mean distance from KSR1 profile = 1.93
NEUROG2 (neurogenin 2) — mean correlation with KSR1 profile = -0.454; mean distance from KSR1 profile = 3.47
ROBO2 (roundabout guidance receptor 2) — mean correlation with KSR1 profile = 0.058; mean distance from KSR1 profile = 1.51
PTPRR (protein tyrosine phosphatase receptor type R) — mean correlation with KSR1 profile = -0.0708; mean distance from KSR1 profile = 5.15
KLF2 (KLF transcription factor 2) — mean correlation with KSR1 profile = 0.189; mean distance from KSR1 profile = 2.71
DDAH2 (DDAH family member 2, ADMA-independent) — mean correlation with KSR1 profile = -0.525; mean distance from KSR1 profile = 2
USP4 (ubiquitin specific peptidase 4) — mean correlation with KSR1 profile = -0.497; mean distance from KSR1 profile = 1.84

2 entries from above, set out differently:
gene knocked down | reagent | mean correlation with KSR1 profile | mean distance from KSR1 profile
CHRNA4 (cholinergic receptor nicotinic alpha 4 subunit) | 1 | -0.389 | 1.81
VPS39 (VPS39 subunit of HOPS complex) | 1 | 0.0771 | 1.87
